PubChem BioAssay AID602196 | INSERM – 2012
In all, the deposit lists about 23,000 reagents; below is a random part of them. Of all reagents, 455 (2%) are marked active. 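Active includes both protection and sensitisation; some change values fall well beyond the stated -50 to +50 range.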 A number with no mark means an inactive call. The record does not give: the amount of reagent.

Aim: 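Modifiers of cisplatin sensitivity in A549 cells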
System: human A549 lung cancer cells
Reagents: siRNA pair against human genes
Timing: 48 h transfection before cisplatin; time from cisplatin to read-out not stated
Treatment: cisplatin at a dose killing half of control-siRNA cells; exact dose and duration not given
Read-out: 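Shift in cisplatin death relative to control siRNA, from -50 (all cells die) to +50 (no cells die); siRNAs harmful on their own scored 0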
Reading the numbers: two-siRNA summed score (-2 to +2): higher = both siRNAs protect from cisplatin killing; -2 means both sensitise; mean protection from cisplatin (shift in death) and protection from cisplatin (shift in death), siRNA C and protection from cisplatin (shift in death), siRNA D: higher = protection from cisplatin killing
Active means: 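Each siRNA scores 0 if harmful alone by LDH or WST-1, otherwise +1 if it reduces and -1 if it increases cisplatin killing; a gene is active when both siRNAs agree (sum +2 or -2)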
Meaning of the calls: active = both siRNAs shift cisplatin killing the same way; inactive = no consistent shift, or siRNA harmful alone

| gene symbol | two-siRNA summed score (-2 to +2) | mean protection from cisplatin (shift in death) (%) | protection from cisplatin (shift in death), siRNA C (%) | protection from cisplatin (shift in death), siRNA D (%) |
| --- | --- | --- | --- | --- |
| CCL4 | 0 | 2.3 | 8.5 | -3.9 |
| LOC131873 | 0 | 5.1 | 11.9 | -1.7 |
| CHST4 | 0 | 6.3 | -2.3 | 15 |
| DEFB118 | 0 | 9.4 | 9.9 | 9 |
| FHOD1 | 0 | 9.3 | 8.2 | 10.3 |
| CRADD | 0 | -2.6 | -9.2 | 4 |
| LOC388283 | 0 | 9.5 | 12.2 | 6.7 |
| YWHAH | 1 | -0.3 | -21.7 | 21.2 |
| VIL1 | 0 | 0.3 | 5.2 | -4.5 |
| LOC389672 | -1 | 0 | 16.5 | -16.5 |
| FCRL3 | 0 | 8.4 | 9.5 | 7.4 |
| EMC4 | 0 | 2.2 | 6 | -1.6 |
| LOC402539 | 0 | 13.9 | 10.7 | 17.2 |
| SPMAP2 | 0 | -0.7 | -12.4 | 10.9 |
| NTAQ1 | 0 | 7 | -2 | 16 |
| KU-MEL-3 | 2 (active) | 18.4 | 20.7 | 16.1 |
| FLJ13105 | 0 | 9.2 | 6.6 | 11.9 |
| DKFZp779O175 | 0 | -3.7 | 5.3 | -12.6 |
| MAGEA9 | 0 | 8.3 | 9.5 | 7.1 |
| RFX8 | 0 | 0.1 | 1.2 | -1.1 |
| LOC401509 | 0 | 6.1 | 5.4 | 6.8 |
| UBTF | 0 | 13.9 | 12.5 | 15.4 |
| LOC441254 | 0 | 3.5 | 7.4 | -0.3 |

In a second layout: results already given
{"gene symbol": "KU-MEL-3", "two-siRNA summed score (-2 to +2)": "2 (active)", "mean protection from cisplatin (shift in death) (%)": 18.4, "protection from cisplatin (shift in death), siRNA C (%)": 20.7, "protection from cisplatin (shift in death), siRNA D (%)": 16.1}
{"gene symbol": "FLJ13105", "two-siRNA summed score (-2 to +2)": 0, "mean protection from cisplatin (shift in death) (%)": 9.2, "protection from cisplatin (shift in death), siRNA C (%)": 6.6, "protection from cisplatin (shift in death), siRNA D (%)": 11.9}
